Experimental findings from the supplement of paper PMC10032668 are described below.

The chains behind the UniProt entries cited, without tags or fusion partners.
SELENOI, Q9C0D9, UniProt Q9C0D9, whole entry: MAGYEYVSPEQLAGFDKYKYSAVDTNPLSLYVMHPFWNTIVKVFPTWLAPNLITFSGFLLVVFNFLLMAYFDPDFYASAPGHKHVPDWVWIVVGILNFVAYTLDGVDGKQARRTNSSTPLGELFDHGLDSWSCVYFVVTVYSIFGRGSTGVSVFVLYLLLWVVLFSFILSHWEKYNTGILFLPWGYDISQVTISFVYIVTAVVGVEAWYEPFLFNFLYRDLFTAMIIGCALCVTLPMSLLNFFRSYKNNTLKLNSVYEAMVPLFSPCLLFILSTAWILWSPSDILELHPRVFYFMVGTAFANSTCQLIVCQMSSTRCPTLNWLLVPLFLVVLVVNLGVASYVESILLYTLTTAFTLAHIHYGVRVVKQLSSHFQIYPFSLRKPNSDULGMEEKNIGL

Common to all, as to test: PRISMA enrichment of interactor (LFQ) in peptide spot vs all other peptide spots (log2 fold change); higher = stronger / more specific binding of the interactor to the peptide
For one assay, the target named is GLRX3, O76003. On the procedure:
(§1)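 PRISMA: 15-aa overlapping tiles (offset 8 aa) of 60 microproteins, plus SOS1/GLUT1 control peptides, were spot-synthesized on cellulose membranes in triplicate. Membranes were incubated with benzonase-treated HEK293T lysate, and bound proteins were identified by LC-MS/MS with LFQ. Enrichment is the log2 fold change of each protein in one spot versus all other spots. Only interactors passing the significance cutoff are listed.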

A further assay concerns the target HMGB1, P09429. On the procedure: as §1
In the next assay the target is NAP1L1, P55209. On the procedure: as §1
In a further assay the target is NUCKS1, Q9H1E3. How it is done: as §1
The next assay concerns the target PTGES3, Q15185. On the procedure:
as §1

The next assay addresses PTMA, P06454. On the procedure: as §1
Another assay has as its target PTMS, P20962. How it is done: as §1
The next assay has as its target RPLP1, P05386. On the procedure:
as §1

The next assay addresses RPS29, P62273. How it is done: as §1
In another assay the target is SGPP1, Q9BX95. How it is done: as §1
The next assay deals with YWHAH, Q04917. On the procedure: as §1
Another assay has as its target RBIS, Q8N0T1. How it is done: as §1
The next assay deals with IRAK1, P51617. How it is done:
as §1

The target in another assay is PSMB1, P20618. How it is done:
as §1

The target of the next assay is RRP9, O43818. How it is done: as §1
The next assay addresses TTN, Q8WZ42. How it is done: as §1
The next assay addresses URB1, O60287. How it is done: as §1
The next assay concerns the target ZNF346, Q9UL40. On the procedure:
as §1

The target in a further assay is MTX2, O75431. On the procedure:
as §1

For another assay, the target named is RUVBL1, Q9Y265. On the procedure:
as §1

The target of the next assay is MRPL11, Q9Y3B7. How it is done: as §1
A further assay addresses NSUN5P2, Q63ZY6. How it is done:
as §1

The next assay has as its target PIEZO2, Q9H5I5. On the procedure: as §1
In the next assay the target is PRPS1, P60891. How it is done:
as §1

The next assay has as its target ZGRF1, Q86YA3. How it is done: as §1
For another assay, the target named is NDUFB10, O96000. On the procedure:
as §1

The target of a further assay is NME1, P15531. On the procedure:
as §1

In a further assay the target is NUP42, O15504. On the procedure: as §1
Another assay deals with PFKL, P17858. On the procedure:
as §1

The target in a further assay is NAA50, Q9GZZ1. On the procedure:
as §1

The target in the next assay is SIRT1, Q96EB6. On the procedure:
as §1

The target of another assay is SLAIN1, Q8ND83. On the procedure: as §1
Another assay has as its target MRM3, Q9HC36. On the procedure:
as §1

The target in the next assay is MTPN, P58546. On the procedure:
as §1

In a further assay the target is VAPA, Q9P0L0. How it is done:
as §1

For a further assay, the target named is GTF3C2, Q8WUA4. On the procedure:
as §1

A further assay concerns the target SELENOI, Q9C0D9. On the procedure: as §1
A further assay has as its target YIF1B, Q5BJH7. How it is done: as §1
For another assay, the target named is INTS2, Q9H0H0. How it is done:
as §1

In the next assay the target is GEMIN2, O14893. How it is done: as §1
The next assay concerns the target NUTF2, P61970. On the procedure:
as §1

The next assay deals with OSTC, Q9NRP0. How it is done:
as §1

The next assay concerns the target PUS1, Q9Y606. On the procedure: as §1
The target of the next assay is RER1, O15258. How it is done:
as §1

The next assay concerns the target HIST1H1E, P10412. On the procedure: as §1
The next assay concerns the target MARCKS, P29966. How it is done: as §1
For a further assay, the target named is ODF2, Q5BJF6. How it is done: as §1
The next assay deals with RBBP5, Q15291. How it is done: as §1
For the next assay, the target named is ST13, P50502. How it is done:
as §1

The target in a further assay is TAF15, Q92804. How it is done: as §1

± gives the standard deviation of the averaged measurements. Some of the results follow. Only hits are listed; about a third recur on repeated control peptides.

B1: RP11-432J24.5 (peptide)
chain: MKKKKYSHWKRGKVI
With B1, the “PRISMA enrichment of interactor (log2)” value with GLRX3, O76003 was 4.17; in the assay with HMGB1, P09429 it was 6.34; in the assay with NAP1L1, P55209, 5.83 ± 0.28; in the assay with NUCKS1, Q9H1E3 it was 4.39; with PTGES3, Q15185, 5.43; with PTMA, P06454, 5.55. The “PRISMA enrichment of interactor (log2)” value in the assay with PTMS, P20962 is 4.84; in the assay with RPLP1, P05386, 6.07; in the assay with RPS29, P62273 it was 4.45; in the assay with SGPP1, Q9BX95, 5.58; with YWHAH, Q04917 it was 4.44.

B2: CRNDE (peptide)
chain: KAGLQSLQFIMELLY
On to B2, for which the “PRISMA enrichment of interactor (log2)” value with RBIS, Q8N0T1 turned out to be 4.38.

B3: SNHG8_2 (peptide)
chain: NGRSLFSIRQWTYRS
B3: the “PRISMA enrichment of interactor (log2)” value in the assay with IRAK1, P51617 worked out at 7.02; in the assay with PSMB1, P20618 it was 5.83; with RRP9, O43818, 4.64; in the assay with TTN, Q8WZ42, 5.62; with URB1, O60287, 6.36; with ZNF346, Q9UL40 it was 4.09.

B4: CRNDE (peptide)
chain: FQSRCKEHGKIKVLE
For B4, the “PRISMA enrichment of interactor (log2)” value with MTX2, O75431 stood at 3.48; in the assay with RUVBL1, Q9Y265, 4.05.

B5: BANCR (peptide)
chain: MDSTVILSCVRSKNL
Regarding B5, the “PRISMA enrichment of interactor (log2)” value stood at 3.61 with MRPL11, Q9Y3B7; 4.89 in the assay with NSUN5P2, Q63ZY6; 7.24 with PIEZO2, Q9H5I5; 3.65 in the assay with PRPS1, P60891; 4.89 in the assay with ZGRF1, Q86YA3.

B6: PARL (peptide)
chain: RWRGEAGRREAGAAA
For the molecule B6, the “PRISMA enrichment of interactor (log2)” value was 4.47 with NDUFB10, O96000; 4.82 with NME1, P15531; 4.47 in the assay with NUP42, O15504; 4.52 with PFKL, P17858.

B7: RP11-12K22.1 (peptide)
chain: ENTEVQKKRRQEATH
For B7, the “PRISMA enrichment of interactor (log2)” value came to 6.79 with NAA50, Q9GZZ1; 4.7 with SIRT1, Q96EB6; 4.84 with SLAIN1, Q8ND83.

B8: RAB12 (peptide)
chain: GAAAVWARAPRRCRA
Regarding B8, the “PRISMA enrichment of interactor (log2)” value was determined as 5.92 in the assay with MRM3, Q9HC36; 6.25 with MTPN, P58546; 4.69 with VAPA, Q9P0L0.

B9: BANCR (peptide)
chain: LLVGSGLGPFSGNIF
Take B9: the “PRISMA enrichment of interactor (log2)” value was found to be 4.31 in the assay with GTF3C2, Q8WUA4; 3.85 with SELENOI, Q9C0D9; 4.54 with YIF1B, Q5BJH7.

B10: SNHG6 (peptide)
chain: RARSWALRGARKPLR
As to B10, the “PRISMA enrichment of interactor (log2)” value with INTS2, Q9H0H0 came out at 5.86.

B11: NDUFB3 (peptide)
chain: FAKSVSFSDVFFKGF
Consider B11, for which the “PRISMA enrichment of interactor (log2)” value with GEMIN2, O14893 is 5.36; with NUTF2, P61970, 4.83; in the assay with OSTC, Q9NRP0 it was 4.81; with PUS1, Q9Y606, 4.56; in the assay with RER1, O15258, 5.03.

B12: RP11-464C19.3 (peptide)
chain: GSRRAFGAHGCRPEW
With B12, the “PRISMA enrichment of interactor (log2)” value worked out at 6.44 with HIST1H1E, P10412; 6.71 with MARCKS, P29966; 8.85 with ODF2, Q5BJF6; 4.49 in the assay with RBBP5, Q15291; 5.62 with ST13, P50502; 5.06 in the assay with TAF15, Q92804.
